Test results: publication PMC7307175
Results are given in words; binding and its absence hold for the method and conditions named. Binding seen in cells or lysates may run through a third protein. Some binding calls cover weakened binding; strength is not graded here. Values belong to the binder of their own block, whether it stands above or below them.

Molecular target: Ras-GAP SH3 domain binding protein 1 (G3BP1) (human (endogenous in HT1080)), Q13283
Test: co-IP
Conditions: remark: other sources report otherwise

binding: binds
B1: double-stranded RNA (dsRNA)-dependent protein kinase R (PKR), P19525 1-551 (protein)
chain: MAGDLSAGFFMEELNTYRQKQGVVLKYQELPNSGPPHDRRFTFQVIIDGREFPEGEGRSKKEAKNAAAKLAVEILNKEKKAVSPLLLTTTNSSEGLSMGNYIGLINRIAQKKRLTVNYEQCASGVHGPEGFHYKCKMGQKEYSIGTGSTKQEAKQLAAKLAYLQILSEETSVKSDYLSSGSFATTCESQSNSLVTSTLASESSSEGDFSADTSEINSNSDSLNSSSLLMNGLRNNQRKAKRSLAPRFDLPDMKETKYTVDKRFGMDFKEIELIGSGGFGQVFKAKHRIDGKTYVIKRVKYNNEKAEREVKALAKLDHVNIVHYNGCWDGFDYDPETSDDSLESSDYDPENSKNSSRSKTKCLFIQMEFCDKGTLEQWIEKRRGEKLDKVLALELFEQITKGVDYIHSKKLIHRDLKPSNIFLVDTKQVKIGDFGLVTSLKNDGKRTRSKGTLRYMSPEQISSQDYGKEVDLYALGLILAELLHVCDTAFETSKFFTDLRDGIISDIFDKKEKTLLQKLLSKKPEDRPNTSEILRTLTVWKKSPEKNERHTC

binding: binds
B2: retinoic acid-inducible I (Rig-I), O95786 1-925 (protein)
chain: MTTEQRRSLQAFQDYIRKTLDPTYILSYMAPWFREEEVQYIQAEKNNKGPMEAATLFLKFLLELQEEGWFRGFLDALDHAGYSGLYEAIESWDFKKIEKLEEYRLLLKRLQPEFKTRIIPTDIISDLSECLINQECEEILQICSTKGMMAGAEKLVECLLRSDKENWPKTLKLALEKERNKFSELWIVEKGIKDVETEDLEDKMETSDIQIFYQEDPECQNLSENSCPPSEVSDTNLYSPFKPRNYQLELALPAMKGKNTIICAPTGCGKTFVSLLICEHHLKKFPQGQKGKVVFFANQIPVYEQQKSVFSKYFERHGYRVTGISGATAENVPVEQIVENNDIIILTPQILVNNLKKGTIPSLSIFTLMIFDECHNTSKQHPYNMIMFNYLDQKLGGSSGPLPQVIGLTASVGVGDAKNTDEALDYICKLCASLDASVIATVKHNLEELEQVVYKPQKFFRKVESRISDKFKYIIAQLMRDTESLAKRICKDLENLSQIQNREFGTQKYEQWIVTVQKACMVFQMPDKDEESRICKALFLYTSHLRKYNDALIISEHARMKDALDYLKDFFSNVRAAGFDEIEQDLTQRFEEKLQELESVSRDPSNENPKLEDLCFILQEEYHLNPETITILFVKTRALVDALKNWIEGNPKLSFLKPGILTGRGKTNQNTGMTLPAQKCILDAFKASGDHNILIATSVADEGIDIAQCNLVILYEYVGNVIKMIQTRGRGRARGSKCFLLTSNAGVIEKEQINMYKEKMMNDSILRLQTWDEAVFREKILHIQTHEKFIRDSQEKPKPVPDKENKKLLCRKCKALACYTADVRVIEECHYTVLGDAFKECFVSRPHPKPKQFSSFEKRAKIFCARQNCSHDWGIHVKYKTFEIPVIKIESFVVEDIATGVQTLYSKWKDFHFEKIPFDPAEMSK
